Measured values as given in the supplement of paper PMC10849652.
This is one part of the list.

The chains behind the UniProt entries cited, without tags or fusion partners. Where a name states a change or a piece, a line headed by the entry shows the natural chain unless it says otherwise.
UniProt P04179: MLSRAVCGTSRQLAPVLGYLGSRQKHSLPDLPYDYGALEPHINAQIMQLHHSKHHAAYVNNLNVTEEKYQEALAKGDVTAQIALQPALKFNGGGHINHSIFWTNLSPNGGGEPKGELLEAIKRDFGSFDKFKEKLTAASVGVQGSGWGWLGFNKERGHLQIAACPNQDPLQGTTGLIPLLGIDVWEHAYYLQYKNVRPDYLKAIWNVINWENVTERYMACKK
UniProt P35610: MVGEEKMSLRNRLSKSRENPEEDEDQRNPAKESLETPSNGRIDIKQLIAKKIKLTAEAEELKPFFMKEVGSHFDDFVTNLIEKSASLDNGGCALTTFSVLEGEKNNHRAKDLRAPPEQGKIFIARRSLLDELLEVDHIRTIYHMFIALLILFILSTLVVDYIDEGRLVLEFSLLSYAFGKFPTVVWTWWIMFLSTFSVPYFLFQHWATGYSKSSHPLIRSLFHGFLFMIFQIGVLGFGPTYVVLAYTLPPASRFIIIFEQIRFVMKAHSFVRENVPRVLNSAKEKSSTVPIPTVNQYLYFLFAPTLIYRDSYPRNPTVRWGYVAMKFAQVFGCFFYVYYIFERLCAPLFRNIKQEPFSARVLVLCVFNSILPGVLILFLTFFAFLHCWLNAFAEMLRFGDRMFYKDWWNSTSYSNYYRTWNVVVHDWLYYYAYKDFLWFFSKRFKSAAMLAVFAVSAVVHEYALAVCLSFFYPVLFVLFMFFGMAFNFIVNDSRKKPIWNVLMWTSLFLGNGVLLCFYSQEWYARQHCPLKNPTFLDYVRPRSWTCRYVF
UniProt O76070, whole entry, looked up: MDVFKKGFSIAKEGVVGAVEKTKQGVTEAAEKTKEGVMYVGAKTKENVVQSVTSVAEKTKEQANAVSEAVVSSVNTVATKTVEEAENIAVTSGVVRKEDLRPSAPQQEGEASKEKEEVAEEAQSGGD
UniProt P62308, whole entry, looked up: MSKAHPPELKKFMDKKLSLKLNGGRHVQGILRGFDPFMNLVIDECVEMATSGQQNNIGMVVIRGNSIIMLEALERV
UniProt O60504: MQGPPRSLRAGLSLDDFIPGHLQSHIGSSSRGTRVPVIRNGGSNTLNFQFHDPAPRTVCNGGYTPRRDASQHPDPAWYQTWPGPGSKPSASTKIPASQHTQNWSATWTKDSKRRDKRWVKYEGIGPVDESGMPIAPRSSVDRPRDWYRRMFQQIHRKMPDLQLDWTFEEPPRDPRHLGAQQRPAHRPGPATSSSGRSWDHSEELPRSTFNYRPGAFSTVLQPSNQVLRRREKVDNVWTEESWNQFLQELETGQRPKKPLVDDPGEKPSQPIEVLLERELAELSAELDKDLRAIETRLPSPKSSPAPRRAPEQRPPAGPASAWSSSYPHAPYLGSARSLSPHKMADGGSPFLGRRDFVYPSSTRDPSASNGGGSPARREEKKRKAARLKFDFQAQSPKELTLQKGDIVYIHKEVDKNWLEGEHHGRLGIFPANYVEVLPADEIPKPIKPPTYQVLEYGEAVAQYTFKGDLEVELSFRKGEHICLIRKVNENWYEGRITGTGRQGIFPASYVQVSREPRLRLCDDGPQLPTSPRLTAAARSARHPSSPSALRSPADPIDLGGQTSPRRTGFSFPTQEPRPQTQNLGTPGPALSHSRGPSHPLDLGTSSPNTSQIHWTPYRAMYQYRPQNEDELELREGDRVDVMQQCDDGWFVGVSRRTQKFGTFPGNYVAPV
UniProt Q12824, whole entry, looked up: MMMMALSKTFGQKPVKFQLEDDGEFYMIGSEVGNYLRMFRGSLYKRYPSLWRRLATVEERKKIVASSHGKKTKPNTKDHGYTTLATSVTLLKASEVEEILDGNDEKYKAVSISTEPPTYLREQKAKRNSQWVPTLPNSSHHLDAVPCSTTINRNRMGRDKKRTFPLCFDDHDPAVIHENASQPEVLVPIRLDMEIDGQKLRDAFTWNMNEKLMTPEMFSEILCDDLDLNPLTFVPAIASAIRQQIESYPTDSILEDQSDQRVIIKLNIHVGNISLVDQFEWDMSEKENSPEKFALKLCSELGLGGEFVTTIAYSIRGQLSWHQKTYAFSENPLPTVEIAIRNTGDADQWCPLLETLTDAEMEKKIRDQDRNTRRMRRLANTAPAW
UniProt P09012, whole entry, looked up: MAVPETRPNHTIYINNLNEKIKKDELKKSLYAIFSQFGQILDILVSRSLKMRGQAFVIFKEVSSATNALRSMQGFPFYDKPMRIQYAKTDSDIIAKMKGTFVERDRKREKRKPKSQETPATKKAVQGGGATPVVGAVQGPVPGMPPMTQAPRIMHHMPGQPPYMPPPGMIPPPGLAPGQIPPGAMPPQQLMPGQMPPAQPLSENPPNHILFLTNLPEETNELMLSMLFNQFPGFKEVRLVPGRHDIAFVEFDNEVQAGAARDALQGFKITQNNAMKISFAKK
UniProt Q6IEG0: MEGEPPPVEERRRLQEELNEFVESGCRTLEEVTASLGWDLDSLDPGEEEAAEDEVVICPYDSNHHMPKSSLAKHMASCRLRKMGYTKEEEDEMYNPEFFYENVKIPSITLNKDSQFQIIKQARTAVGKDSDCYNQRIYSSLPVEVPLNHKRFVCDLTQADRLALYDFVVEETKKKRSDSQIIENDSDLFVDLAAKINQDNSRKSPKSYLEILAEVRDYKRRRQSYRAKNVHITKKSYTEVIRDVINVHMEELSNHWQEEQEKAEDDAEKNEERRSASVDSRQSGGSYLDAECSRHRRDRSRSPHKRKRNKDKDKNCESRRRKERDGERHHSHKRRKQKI
UniProt Q8WVK2: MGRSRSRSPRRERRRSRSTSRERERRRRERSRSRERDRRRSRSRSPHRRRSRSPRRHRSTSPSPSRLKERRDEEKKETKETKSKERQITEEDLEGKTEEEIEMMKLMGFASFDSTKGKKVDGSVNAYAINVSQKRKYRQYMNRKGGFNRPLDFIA
UniProt Q96H20: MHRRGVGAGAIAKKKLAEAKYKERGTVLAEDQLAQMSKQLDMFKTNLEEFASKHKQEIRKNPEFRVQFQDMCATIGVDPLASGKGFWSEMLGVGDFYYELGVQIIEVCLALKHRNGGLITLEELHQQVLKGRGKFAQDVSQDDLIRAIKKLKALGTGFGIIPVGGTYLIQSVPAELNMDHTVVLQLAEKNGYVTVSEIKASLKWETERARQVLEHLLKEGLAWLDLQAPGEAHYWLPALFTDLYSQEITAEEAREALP
UniProt Q13573: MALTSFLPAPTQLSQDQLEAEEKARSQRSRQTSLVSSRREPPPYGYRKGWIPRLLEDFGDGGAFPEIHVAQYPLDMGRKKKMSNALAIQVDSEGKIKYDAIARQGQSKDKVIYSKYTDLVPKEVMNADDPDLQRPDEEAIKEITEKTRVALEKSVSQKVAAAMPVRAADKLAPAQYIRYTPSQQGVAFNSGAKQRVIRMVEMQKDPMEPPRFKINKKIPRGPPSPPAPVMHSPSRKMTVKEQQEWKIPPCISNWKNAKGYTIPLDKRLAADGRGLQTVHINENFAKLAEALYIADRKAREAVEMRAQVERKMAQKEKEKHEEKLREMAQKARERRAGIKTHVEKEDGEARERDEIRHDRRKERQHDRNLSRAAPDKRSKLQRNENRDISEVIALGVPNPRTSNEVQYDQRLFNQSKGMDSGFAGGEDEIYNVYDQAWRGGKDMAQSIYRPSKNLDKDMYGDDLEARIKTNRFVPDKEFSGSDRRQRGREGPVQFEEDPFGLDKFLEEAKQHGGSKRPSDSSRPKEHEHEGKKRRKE
UniProt Q9H4L7: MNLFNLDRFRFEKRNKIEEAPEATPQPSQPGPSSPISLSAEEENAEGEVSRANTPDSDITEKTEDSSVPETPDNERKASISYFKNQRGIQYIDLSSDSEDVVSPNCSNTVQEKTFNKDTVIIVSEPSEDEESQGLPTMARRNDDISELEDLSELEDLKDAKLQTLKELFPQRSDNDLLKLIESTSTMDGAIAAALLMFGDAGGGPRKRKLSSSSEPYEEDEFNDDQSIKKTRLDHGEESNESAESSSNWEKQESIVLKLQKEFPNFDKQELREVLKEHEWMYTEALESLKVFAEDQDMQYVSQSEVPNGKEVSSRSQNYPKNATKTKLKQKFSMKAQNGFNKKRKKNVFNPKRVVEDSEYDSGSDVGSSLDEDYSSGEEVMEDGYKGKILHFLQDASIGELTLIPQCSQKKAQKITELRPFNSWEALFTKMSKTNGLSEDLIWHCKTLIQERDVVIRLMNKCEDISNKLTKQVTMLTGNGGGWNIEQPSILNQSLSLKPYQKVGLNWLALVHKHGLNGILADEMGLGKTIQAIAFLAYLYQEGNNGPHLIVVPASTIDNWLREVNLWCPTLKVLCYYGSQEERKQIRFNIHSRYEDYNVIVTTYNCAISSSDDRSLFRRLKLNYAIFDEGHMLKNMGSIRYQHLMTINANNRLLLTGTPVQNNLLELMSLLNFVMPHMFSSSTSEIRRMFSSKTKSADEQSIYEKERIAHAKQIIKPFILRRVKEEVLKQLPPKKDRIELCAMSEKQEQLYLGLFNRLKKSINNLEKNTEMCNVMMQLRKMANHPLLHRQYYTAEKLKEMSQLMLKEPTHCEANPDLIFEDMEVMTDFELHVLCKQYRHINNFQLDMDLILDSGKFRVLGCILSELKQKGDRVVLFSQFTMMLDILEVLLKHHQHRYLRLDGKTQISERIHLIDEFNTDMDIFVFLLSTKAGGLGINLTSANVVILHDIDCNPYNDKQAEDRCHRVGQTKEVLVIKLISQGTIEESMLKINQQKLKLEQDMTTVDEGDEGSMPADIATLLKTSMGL
UniProt O75940: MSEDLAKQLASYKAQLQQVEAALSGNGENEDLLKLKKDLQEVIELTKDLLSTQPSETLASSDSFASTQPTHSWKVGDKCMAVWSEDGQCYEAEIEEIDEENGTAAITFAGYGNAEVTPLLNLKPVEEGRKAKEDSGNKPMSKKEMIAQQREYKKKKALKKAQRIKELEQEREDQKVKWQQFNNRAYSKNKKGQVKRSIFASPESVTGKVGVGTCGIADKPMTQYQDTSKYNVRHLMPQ
UniProt Q96DI7: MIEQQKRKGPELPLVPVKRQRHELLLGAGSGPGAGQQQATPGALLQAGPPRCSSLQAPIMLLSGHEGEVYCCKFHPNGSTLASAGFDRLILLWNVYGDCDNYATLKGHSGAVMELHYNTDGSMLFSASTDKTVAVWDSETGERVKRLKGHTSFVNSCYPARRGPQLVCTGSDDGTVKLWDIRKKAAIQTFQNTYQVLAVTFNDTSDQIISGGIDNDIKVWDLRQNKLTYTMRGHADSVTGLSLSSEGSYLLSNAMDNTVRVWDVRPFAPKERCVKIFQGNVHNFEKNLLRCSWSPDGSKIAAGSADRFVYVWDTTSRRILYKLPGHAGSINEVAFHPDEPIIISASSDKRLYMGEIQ
UniProt P62306, whole entry, looked up: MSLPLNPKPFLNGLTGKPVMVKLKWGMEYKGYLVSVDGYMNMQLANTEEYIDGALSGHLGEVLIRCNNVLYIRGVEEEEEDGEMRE
UniProt Q13424: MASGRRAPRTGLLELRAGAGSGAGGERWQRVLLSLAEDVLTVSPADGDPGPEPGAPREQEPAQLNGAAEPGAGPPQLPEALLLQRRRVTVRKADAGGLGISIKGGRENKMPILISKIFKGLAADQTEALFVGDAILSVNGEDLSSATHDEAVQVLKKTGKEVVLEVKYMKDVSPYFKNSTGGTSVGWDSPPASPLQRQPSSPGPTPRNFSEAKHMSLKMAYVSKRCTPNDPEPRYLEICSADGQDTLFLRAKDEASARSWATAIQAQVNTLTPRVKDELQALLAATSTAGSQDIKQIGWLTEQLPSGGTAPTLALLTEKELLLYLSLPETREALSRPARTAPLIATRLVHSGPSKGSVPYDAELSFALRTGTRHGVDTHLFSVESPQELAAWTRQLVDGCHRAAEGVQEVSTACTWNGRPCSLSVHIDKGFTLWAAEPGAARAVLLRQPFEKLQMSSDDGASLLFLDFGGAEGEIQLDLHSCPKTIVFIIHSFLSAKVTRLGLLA

Assays:
Experiment in all cases: log2 fold change, soluble protein after heating vs DMSO (PISA); higher = thermal stabilisation; K562 lysate, 10 uM; active = over 0.2 and 3.5 SD of the protein, either way, in both replicates (recomputed)
lapatinib = compound: CS(=O)(=O)CCNCc1ccc(-c2ccc3ncnc(Nc4ccc(OCc5cccc(F)c5)c(Cl)c4)c3c2)o1 [lapatinib]
Summary of the method: (§1)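 K562 pellets were dounce-homogenised in PBS pH 7.4 containing 1 mM MgCl2, and the crude extract, at 1 mg/mL protein, was exposed to 10 μM compound for 30 min. Aliquots were heated for 3 min across 48°C-58°C, pooled, brought to 0.5% NP-40 at 4°C and spun at 21,000xg for 90 min, with the supernatant taken as soluble protein. TMTpro 16plex LC-MS/MS with equalised channel sums quantified that protein. Values are log-two fold changes in thermal stability relative to solvent controls, taken from duplicates.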

pictilisib = compound: CS(=O)(=O)N1CCN(Cc2cc3nc(-c4cccc5[nH]ncc45)nc(N4CCOCC4)c3s2)CC1 [pictilisib]
Summary of the method: as §1

crizotinib = compound: C[C@@H](Oc1cc(-c2cnn(C3CCNCC3)c2)cnc1N)c1c(Cl)ccc(F)c1Cl [crizotinib]
Summary of the method: as §1

[1] = compound: C[C@H](C1=CC=C(C=C1)C(=O)NC2=C3C=CNC3=NC=C2)N
Summary of the method: as §1

duvelisib = compound: C[C@H](Nc1ncnc2nc[nH]c12)c1cc2cccc(Cl)c2c(=O)n1-c1ccccc1 [duvelisib]
Summary of the method: as §1

gandotinib = compound: Cc1cc(Nc2cc(CN3CCOCC3)c3nc(C)c(Cc4ccc(Cl)cc4F)n3n2)n[nH]1 [gandotinib]
Summary of the method: as §1

tozasertib = compound: Cc1cc(Nc2cc(N3CCN(C)CC3)nc(Sc3ccc(NC(=O)C4CC4)cc3)n2)n[nH]1 [tozasertib]
Summary of the method: as §1

doramapimod = compound: Cc1ccc(-n2nc(C(C)(C)C)cc2NC(=O)Nc2ccc(OCCN3CCOCC3)c3ccccc23)cc1 [doramapimod]
Summary of the method: as §1

bafetinib = compound: Cc1ccc(NC(=O)c2ccc(CN3CC[C@H](N(C)C)C3)c(C(F)(F)F)c2)cc1Nc1nccc(-c2cncnc2)n1 [bafetinib]
Summary of the method: as §1

[2] = compound: Cc1cccc(CC(=O)N2CCc3c2ccc(-c2cn(C)c4ncnc(N)c24)c3F)n1
Summary of the method: as §1

nilotinib = compound: Cc1cn(-c2cc(NC(=O)c3ccc(C)c(Nc4nccc(-c5cccnc5)n4)c3)cc(C(F)(F)F)c2)cn1 [nilotinib]
Summary of the method: as §1

[3] = compound: Cc1nc(Nc2n[nH]c3c2CN(C(=O)N[C@H](CN(C)C)c2ccccc2)C3(C)C)c2sccc2n1
Summary of the method: as §1

dasatinib = compound: Cc1nc(Nc2ncc(C(=O)Nc3c(C)cccc3Cl)s2)cc(N2CCN(CCO)CC2)n1 [dasatinib]
Summary of the method: as §1

[4] = compound: Cc1ncc(-c2ccnc(Nc3ccc(S(C)(=O)=O)cc3)n2)n1C(C)C
Summary of the method: as §1

[5] = compound: Cn1cc(-c2ccc3c(c2)CCN3C(=O)Cc2cccc(C(F)(F)F)c2)c2c(N)ncnc21
Summary of the method: as §1

quisinostat = compound: Cn1cc(CNCC2CCN(c3ncc(C(=O)NO)cn3)CC2)c2ccccc21 [quisinostat]
Summary of the method: as §1

tipifarnib = compound: Cn1cncc1[C@@](N)(c1ccc(Cl)cc1)c1ccc2c(c1)c(-c1cccc(Cl)c1)cc(=O)n2C [tipifarnib]
Summary of the method: as §1

[6] = compound: NC(=O)Nc1cc(-c2cccc(F)c2)sc1C(=O)N[C@H]1CCCNC1
Summary of the method: as §1

[7] = compound: NC(=O)c1cnc(N[C@@H]2CCCC[C@@H]2N)nc1Nc1cccc(-n2nccn2)c1
Summary of the method: as §1

[8] = compound: NC1(c2ccc(-c3nc4ccn5c(=O)[nH]nc5c4cc3-c3ccccc3)cc2)CCC1
Summary of the method: as §1

Row | Target | log2 fold change (lapatinib) | log2 fold change (pictilisib) | log2 fold change (crizotinib) | log2 fold change [1] | log2 fold change (duvelisib) | log2 fold change (gandotinib) | log2 fold change (tozasertib) | log2 fold change (doramapimod) | log2 fold change (bafetinib) | log2 fold change [2] | log2 fold change (nilotinib) | log2 fold change [3] | log2 fold change (dasatinib) | log2 fold change [4] | log2 fold change [5] | log2 fold change (quisinostat) | log2 fold change (tipifarnib) | log2 fold change [6] | log2 fold change [7] | log2 fold change [8]
1 | SOD2 (UniProt P04179) | inactive: -0.006 | inactive: 0.01 | inactive: 0.036 | inactive: -0.062 | inactive: 0.02 | inactive: 0.081 | inactive: -0.027 | inactive: -0.084 | inactive: 0.102 | inactive: 0.019 | inactive: 0.038 | inactive: -0.008 | inactive: -0.016 | inactive: 0.015 | inactive: -0.002 | inactive: 0.058 | inactive: -0.005 | inactive: -0.061 | inactive: -0.007 | inactive: 0.008
2 | SOAT1 (UniProt P35610) | inactive: 0.027 | inactive: -0.004 | inactive: -0.022 | inactive: -0.079 | inactive: -0.016 | inactive: 0.005 | inactive: 0.009 | inactive: 0.157 | inactive: 0.029 | inactive: 0.141 | active: 0.313 | inactive: -0.019 | inactive: 0.071 | inactive: -0.065 | inactive: -0.022 | inactive: -0.12 | inactive: 0.072 | inactive: -0.042 | inactive: 0.045 | inactive: -0.013
3 | SNCG (UniProt O76070) | inactive: 0.043 | inactive: 0.023 | inactive: 0.047 | inactive: -0.018 | inactive: -0.033 | inactive: 0.125 | inactive: -0.033 | inactive: 0.031 | inactive: -0.002 | inactive: -0.008 | inactive: -0.014 | inactive: -0.011 | inactive: 0.05 | inactive: 0.009 | inactive: -0.022 | inactive: -0.012 | inactive: 0.033 | inactive: -0.062 | inactive: -0.057 | inactive: 0.007
4 | SNRPG (UniProt P62308) | inactive: -0.008 | inactive: -0.031 | inactive: 0.014 | inactive: -0.156 | inactive: 0.013 | inactive: 0.099 | inactive: -0.055 | inactive: -0.036 | inactive: 0.039 | inactive: 0.101 | inactive: 0.027 | inactive: -0.008 | inactive: 0.016 | inactive: -0.012 | inactive: -0.038 | inactive: -0.02 | inactive: 0.016 | inactive: 0.026 | inactive: 0.004 | inactive: 0.002
5 | SORBS3 (UniProt O60504) | inactive: 0.072 | inactive: 0.007 | inactive: -0.002 | inactive: 0.006 | inactive: -0.127 | inactive: 0.024 | inactive: -0.012 | inactive: -0.019 | inactive: -0.032 | inactive: 0.025 | – | – | inactive: 0.005 | – | inactive: -0.019 | inactive: -0.088 | – | inactive: 0.022 | inactive: 0.036 | inactive: -0.019
6 | SMARCB1 (UniProt Q12824) | inactive: -0.057 | inactive: -0.008 | inactive: -0.017 | inactive: -0.034 | inactive: 0.013 | inactive: -0.027 | inactive: -0.046 | inactive: 0.028 | inactive: -0.112 | inactive: -0.038 | inactive: -0.014 | inactive: 0.003 | inactive: 0.019 | inactive: 0.007 | inactive: 0.033 | inactive: -0.053 | inactive: 0.026 | inactive: 0.04 | inactive: -0.003 | inactive: 0.01
7 | SNRPA (UniProt P09012) | inactive: -0.03 | inactive: 0.001 | inactive: 0.004 | inactive: -0.055 | inactive: 0.009 | inactive: 0.063 | inactive: 0.007 | inactive: -0.013 | inactive: -0.004 | inactive: 0.013 | inactive: 0.009 | inactive: -0.013 | inactive: -0.002 | inactive: -0.017 | inactive: -0.014 | inactive: 0.01 | inactive: 0.006 | inactive: -0.003 | inactive: -0.004 | inactive: -0.016
8 | SNRNP48 (UniProt Q6IEG0) | inactive: 0.007 | inactive: 0.047 | inactive: 0.01 | inactive: -0.243 | inactive: -0.061 | inactive: 0.054 | inactive: -0.049 | inactive: 0.088 | inactive: -0.192 | inactive: 0.198 | inactive: -0.04 | inactive: 0.05 | inactive: -0.007 | inactive: 0 | inactive: 0.046 | inactive: -0.002 | inactive: -0.093 | inactive: 0.01 | inactive: -0.02 | inactive: -0.079
9 | SNRNP27 (UniProt Q8WVK2) | inactive: -0.006 | inactive: 0 | inactive: -0.069 | inactive: 0.026 | inactive: 0.015 | inactive: -0.022 | inactive: -0.002 | inactive: 0.077 | inactive: 0.1 | inactive: -0.067 | inactive: -0.012 | inactive: -0.007 | inactive: 0.009 | inactive: 0.007 | inactive: 0.079 | inactive: -0.139 | inactive: 0.032 | inactive: 0.033 | inactive: -0.007 | inactive: 0.017
10 | SNF8 (UniProt Q96H20) | inactive: -0.007 | inactive: -0.03 | inactive: -0.009 | inactive: 0.016 | inactive: 0.025 | inactive: -0.03 | inactive: 0.012 | inactive: -0.038 | inactive: -0.04 | inactive: 0.007 | inactive: -0.023 | inactive: 0.017 | inactive: -0.03 | inactive: 0.037 | inactive: 0.053 | inactive: 0.021 | inactive: 0.014 | inactive: -0.028 | inactive: 0 | inactive: 0.049
11 | SNW1 (UniProt Q13573) | inactive: 0.019 | inactive: -0.002 | inactive: 0.002 | inactive: 0.155 | inactive: -0.018 | inactive: -0.037 | inactive: -0.01 | inactive: -0.002 | inactive: -0.002 | inactive: -0.007 | inactive: 0.002 | inactive: -0.009 | inactive: 0.024 | inactive: -0.036 | inactive: -0.015 | inactive: 0.012 | inactive: 0.009 | inactive: -0.016 | inactive: -0.01 | inactive: -0.01
12 | SMARCAD1 isoform 2 (UniProt Q9H4L7) | inactive: -0.005 | inactive: -0.015 | inactive: -0.073 | inactive: -0.019 | inactive: -0.013 | inactive: -0.044 | inactive: 0.018 | inactive: 0.003 | inactive: -0.045 | inactive: 0.008 | inactive: -0.001 | inactive: -0.008 | inactive: -0.033 | inactive: -0.005 | inactive: -0.005 | inactive: -0.054 | inactive: -0.025 | inactive: 0.016 | inactive: 0.059 | inactive: -0.007
13 | SMNDC1 (UniProt O75940) | inactive: -0.021 | inactive: 0.034 | inactive: -0.012 | inactive: -0.028 | inactive: -0.019 | inactive: 0.022 | inactive: -0.01 | inactive: 0.018 | inactive: -0.012 | inactive: -0.04 | inactive: 0.008 | inactive: 0.017 | inactive: 0.062 | inactive: -0.003 | inactive: -0.023 | inactive: -0.066 | inactive: -0.019 | inactive: 0.009 | inactive: 0.005 | inactive: 0
14 | SNRNP40 (UniProt Q96DI7) | inactive: -0.014 | inactive: 0.063 | inactive: -0.042 | inactive: -0.075 | inactive: -0.006 | inactive: 0.167 | inactive: 0.015 | inactive: 0.121 | inactive: 0.011 | inactive: 0.089 | inactive: 0.018 | inactive: 0.03 | inactive: -0.007 | inactive: 0.019 | inactive: -0.004 | inactive: -0.027 | inactive: 0.012 | inactive: 0.013 | inactive: -0.012 | inactive: 0.002
15 | SNRPF (UniProt P62306) | inactive: 0.021 | inactive: -0.029 | inactive: -0.077 | inactive: -0.237 | inactive: 0.076 | inactive: 0.21 | inactive: -0.016 | inactive: 0.026 | inactive: 0.05 | inactive: 0.218 | inactive: -0.044 | inactive: 0.063 | inactive: 0.005 | inactive: 0.013 | inactive: -0.156 | inactive: -0.276 | inactive: -0.037 | inactive: 0 | inactive: -0.044 | inactive: 0.013
16 | SNTA1 (UniProt Q13424) | inactive: -0.098 | inactive: -0.001 | inactive: -0.091 | inactive: -0.085 | inactive: 0.043 | inactive: 0.035 | inactive: -0.032 | inactive: 0.041 | inactive: -0.06 | inactive: -0.038 | inactive: -0.001 | inactive: 0.002 | inactive: -0.09 | inactive: -0.03 | inactive: -0.104 | inactive: -0.09 | inactive: 0.08 | inactive: 0.016 | inactive: 0.084 | inactive: -0.002

Record cards, as listed above. Order of values: log2 fold change (lapatinib) | log2 fold change (pictilisib) | log2 fold change (crizotinib) | log2 fold change [1] | log2 fold change (duvelisib) | log2 fold change (gandotinib) | log2 fold change (tozasertib) | log2 fold change (doramapimod) | log2 fold change (bafetinib) | log2 fold change [2] | log2 fold change (nilotinib) | log2 fold change [3] | log2 fold change (dasatinib) | log2 fold change [4] | log2 fold change [5] | log2 fold change (quisinostat) | log2 fold change (tipifarnib) | log2 fold change [6] | log2 fold change [7] | log2 fold change [8]
SNRNP40 (UniProt Q96DI7) reads inactive: -0.014 | inactive: 0.063 | inactive: -0.042 | inactive: -0.075 | inactive: -0.006 | inactive: 0.167 | inactive: 0.015 | inactive: 0.121 | inactive: 0.011 | inactive: 0.089 | inactive: 0.018 | inactive: 0.03 | inactive: -0.007 | inactive: 0.019 | inactive: -0.004 | inactive: -0.027 | inactive: 0.012 | inactive: 0.013 | inactive: -0.012 | inactive: 0.002
SNRPF (UniProt P62306) reads inactive: 0.021 | inactive: -0.029 | inactive: -0.077 | inactive: -0.237 | inactive: 0.076 | inactive: 0.21 | inactive: -0.016 | inactive: 0.026 | inactive: 0.05 | inactive: 0.218 | inactive: -0.044 | inactive: 0.063 | inactive: 0.005 | inactive: 0.013 | inactive: -0.156 | inactive: -0.276 | inactive: -0.037 | inactive: 0 | inactive: -0.044 | inactive: 0.013
